PubChem BioAssay AID1259308, NCATS – 2017
Purpose: 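Knock-downs that increase output of a recombinant reporter protein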 (primary screen). Cell system: human HEK293 embryonic kidney cells stably expressing firefly luciferase (HEK-CMV-Luc2-Hygro). Knock-down reagent: single siRNA against human genes, 0.8 pmol siRNA per well. Time to read-out: 72 h. Measured: 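Reporter luminescence and viable-cell signal on separate replicate plates, given as percent of non-targeting control and median/MAD z-scores, plus per-cell luciferase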. Reading the numbers: total luciferase, z-score and total luciferase, % of control: higher = more reporter protein produced; luciferase per cell, z-score: higher = more reporter output per viable cell; viable cells, % of control: higher = more viable cells. Hit rule: 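An siRNA counts as active if its total luciferase robust z-score exceeds 3; genes with two or more such siRNAs out of three were retested with fresh siRNAs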. Calls: active = raised luciferase; inactive = no rise.
The whole screen tested about 59,000 reagents; shown is an unselected part. Of all reagents, about 1,510 (2.6%) are marked active. 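Calls use total luciferase alone and ignore viability, so some active siRNAs may act by altering cell number.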

Gene,PubChem SID,"total luciferase, z-score","total luciferase, % of control","luciferase per cell, z-score","viable cells, % of control",Outcome
NHLRC4 (NHL repeat containing 4),SID160724995,0.566,93.1,1.32,73.6,inactive
NHLRC4 (NHL repeat containing 4),SID160724996,-0.912,63.7,-0.872,89.6,inactive
NHLRC4 (NHL repeat containing 4),SID160724997,-1.01,61.8,0.307,63.7,inactive
RPS5 (ribosomal protein S5),SID160716140,-2.12,39.7,-1.27,61.9,inactive
RPS5 (ribosomal protein S5),SID160716141,-2.88,24.6,-2.12,47.9,inactive
RPS5 (ribosomal protein S5),SID160716142,-3.5,12.4,-6.18,70.2,inactive
CHIA (chitinase acidic),SID160738485,-0.407,73.8,-0.349,90.4,inactive
CHIA (chitinase acidic),SID160738486,0.35,88.8,0.548,85.9,inactive
CHIA (chitinase acidic),SID160738487,-1.21,57.8,-1.51,96,inactive
C11orf21 (chromosome 11 open reading frame 21),SID160724379,1.04,103,1.15,84.6,inactive
C11orf21 (chromosome 11 open reading frame 21),SID160739127,-0.196,78,-0.299,94.3,inactive
C11orf21 (chromosome 11 open reading frame 21),SID160739128,-0.124,79.4,-0.816,110,inactive
THSD7A (thrombospondin type 1 domain containing 7A),SID160761797,-0.241,77.1,-0.166,90,inactive
THSD7A (thrombospondin type 1 domain containing 7A),SID160761798,0.623,94.3,0.2,100,inactive
THSD7A (thrombospondin type 1 domain containing 7A),SID160761799,-0.153,78.8,0.862,70.2,inactive
RNF128 (ring finger protein 128),SID160748949,-0.611,69.7,-0.459,87.9,inactive
RNF128 (ring finger protein 128),SID160748951,-0.377,74.4,-0.824,103,inactive
RNF128 (ring finger protein 128),SID160748952,1.21,106,1.01,90.7,inactive
TRMT2A (tRNA methyltransferase 2A),SID160738284,-0.351,74.9,0.0551,82.5,inactive
TRMT2A (tRNA methyltransferase 2A),SID160738285,0.757,96.9,0.293,100,inactive
TRMT2A (tRNA methyltransferase 2A),SID160738286,0.0114,82.1,-0.351,101,inactive
"HLA-DMA (major histocompatibility complex, class II, DM alpha)",SID160774979,-0.281,76.3,0.267,79.5,inactive
"HLA-DMA (major histocompatibility complex, class II, DM alpha)",SID160774980,1.27,107,0.771,97.7,inactive
"HLA-DMA (major histocompatibility complex, class II, DM alpha)",SID160774981,-2.54,31.3,-2.47,67.1,inactive

As entered above.
Under “Outcome”, THSD7A (thrombospondin type 1 domain containing 7A) [SID160761799] has inactive
Result of CHIA (chitinase acidic) [SID160738487] in “total luciferase, % of control”: 57.8
Result of RNF128 (ring finger protein 128) [SID160748951] under “total luciferase, % of control”: 74.4
RNF128 (ring finger protein 128) [SID160748952], viable cells, % of control → 90.7
CHIA (chitinase acidic) [SID160738486], viable cells, % of control → 85.9

Continued.
Gene,PubChem SID,"total luciferase, z-score","total luciferase, % of control","luciferase per cell, z-score","viable cells, % of control",Outcome
CREG1 (cellular repressor of E1A stimulated genes 1),SID160720848,2.26,127,1.34,99.7,inactive
CREG1 (cellular repressor of E1A stimulated genes 1),SID160720849,2.42,130,1.76,91.4,inactive
CREG1 (cellular repressor of E1A stimulated genes 1),SID160720850,0.0328,82.5,-0.587,108,inactive
MS4A12 (membrane spanning 4-domains A12),SID160742345,0.00719,82,-0.316,99.6,inactive
MS4A12 (membrane spanning 4-domains A12),SID160742346,-0.45,72.9,-0.993,106,inactive
MS4A12 (membrane spanning 4-domains A12),SID160742347,0.832,98.4,0.672,92.2,inactive
APEX2 (apurinic/apyrimidinic endodeoxyribonuclease 2),SID160738686,2.76,137,2.52,78.8,inactive
APEX2 (apurinic/apyrimidinic endodeoxyribonuclease 2),SID160738687,-1.08,60.5,0.386,61,inactive
APEX2 (apurinic/apyrimidinic endodeoxyribonuclease 2),SID160738689,-0.885,64.3,-0.98,93,inactive
ZNF658 (zinc finger protein 658),SID160737701,0.23,86.5,-0.0616,98.2,inactive
ZNF658 (zinc finger protein 658),SID160737702,0.109,84.1,-0.342,103,inactive
ZNF658 (zinc finger protein 658),SID160737703,3.09,143,3.34,66.5,active
"TUBA5P (tubulin alpha 5, pseudogene)",SID160734733,1.84,118,2.79,63.5,inactive
"TUBA5P (tubulin alpha 5, pseudogene)",SID160773661,0.0914,83.7,0.0745,91.7,inactive
"TUBA5P (tubulin alpha 5, pseudogene)",SID160773662,0.29,87.7,0.334,89.7,inactive
MRPL52 (mitochondrial ribosomal protein L52),SID160732387,2.56,133,1.09,111,inactive
MRPL52 (mitochondrial ribosomal protein L52),SID160756002,1.78,117,0.939,102,inactive
MRPL52 (mitochondrial ribosomal protein L52),SID160756003,-0.63,69.3,-0.925,98.8,inactive
RPRML (reprimo like),SID160765849,1.12,104,1.13,86.5,inactive
RPRML (reprimo like),SID160765850,1.85,119,2.02,78,inactive
RPRML (reprimo like),SID160765852,-0.62,69.5,0.723,64.2,inactive
TROAP (trophinin associated protein),SID160724151,-0.223,77.5,0.12,83.9,inactive
TROAP (trophinin associated protein),SID160724159,-0.762,66.7,-0.181,78.2,inactive
TROAP (trophinin associated protein),SID160724166,-0.859,64.8,-0.912,92.1,inactive
NACA2 (nascent polypeptide associated complex subunit alpha 2),SID160733104,0.65,94.8,2.55,54.1,inactive
NACA2 (nascent polypeptide associated complex subunit alpha 2),SID160764621,4.1,164,3.69,69.2,active
NACA2 (nascent polypeptide associated complex subunit alpha 2),SID160764622,0.674,95.3,1.47,72.2,inactive
CYP2D6,SID160751554,-0.161,78.7,-0.863,110,inactive
CYP2D6,SID160751564,-0.198,77.9,-0.571,101,inactive
CYP2D6,SID160751574,-0.0958,80,-0.645,106,inactive
MAP3K12 (mitogen-activated protein kinase kinase kinase 12),SID160719343,0.572,93.3,-0.106,107,inactive
MAP3K12 (mitogen-activated protein kinase kinase kinase 12),SID160719344,-0.129,79.3,0.389,80,inactive
MAP3K12 (mitogen-activated protein kinase kinase kinase 12),SID160719345,0.507,92,-0.0173,103,inactive
